Results published in patent US10876115B2, “Method for assaying MicroRNA, cancer therapeutic agent, and medical composition containing same for cancer therapy” (National University Corporation Tokyo Medical and Dental …, priority 2013, dated 2020).
Some entries share one result that the patent states for a list of compounds.

System: transcriptional activity of NRF2 (ARE activity)
Assay: miRNA library screening using ARE-luciferase reporter system
Format: cell-based, human
Details: HeLa cells, 20 nmol/L miRNA, 48 hours after transfection, luciferase activity per living cell
Procedure: The luciferase reporter plasmid was prepared by inserting a human NQO-1 promoter region 5′-[…]-3′ (SEQ ID NO: 19) including an antioxidant response element (ARE) into an Mlu1/Xho1 site in pGL3 vector (Promega). Specifically, a pair of synthetic oligonucleotides complementary with each other shown in Table 2 (upper; SEQ ID NO: 20, lower; SEQ ID NO: 21) were annealed, to thereby form a double-stranded DNA, and a double-stranded DNA having cohesive ends complementary to the Mlu1/Xho1 site was prepared by use of Mlu1 and Xho1. The thus-produced double-stranded DNA fragment was inserted into the Mlu1/Xho1 site, to thereby yield a recombinant pGL3 (reporter plasmid) of interest.
Firstly, the reporter plasmid was transiently transfected into HeLa cells (1×10^7 cells/dish) in a 10 cm dish. 24 hours after transfection, the cells (1×10^4 cells/well) were seeded on a 96-well plate, and the next day, 20 nmol/L of each of the 470 double-stranded RNA fragments, derived from Pre-miRNA precursor library-Human V3 (Ambion) or control miRNA was transfected. After two days, firefly luciferase activity was measured by means of a microplate reader (ARVOmx; Perkinelmer) using Bright-Glo Luciferase Assay System (Promega). At the same time, living cells were detected through CV staining assay. ARE activity was calculated from the luciferase activity per living cell.
For the screening of 470 double-stranded RNAs, HeLa cells were sequentially transfected with each miRNA together with the reporter plasmid, and then the ARE activity in each transfected cell was calculated as the luciferase activity per living cell, as measured by the crystal violet (CV) staining assay. Briefly, the ARE-luciferase reporter plasmid and each miRNA from the library were sequentially transfected into HeLa cells, and after 48 hours, luciferase activity or the number of living cells was measured using the Bright-GIo Luciferase Assay System or crystal violet (CV) staining assay, respectively. The ARE activity for each miRNA-transfected cell was calculated as the luciferase activity per living cell.
The ARE activity relative to that in control-miRNA-transfected cells is indicated on the vertical axis. Eight miRNAs with a relative ratio of 0.5 or less were identified as candidates by this screening system. Also, eight miRNAs with a relative ratio of 1.5 or more were similarly identified as candidates by this screening system.

Row | Substance | ARE activity relative to that in control-miRNA-transfected cells (relative ratio)
1 | hsa-miR-29: high-value miRNA; Table 1-2 prints hsa-miR-297, AUGUAUGUGUGCAUGUGCAUG, SEQ ID NO: 16 (listed as RNA, chemistry not given here; listed as Homo sapiens) | ≥ 1.5
2 | hsa-miR-567: high-value miRNA; mature sequence AGUAUGUUCUUCCAGGACAGAAC, SEQ ID NO: 12 (listed as RNA, chemistry not given here; listed as Homo sapiens) | ≥ 1.5
3 | hsa-miR-190: high-value miRNA; mature sequence UGAUAUGUUUGAUAUAUUAGGU, SEQ ID NO: 11 (listed as RNA, chemistry not given here; listed as Homo sapiens) | ≥ 1.5
4 | hsa-miR-125a: high-value miRNA; mature sequence UCCCUGAGACCCUUUAACCUGUG, SEQ ID NO: 14 (listed as RNA, chemistry not given here; listed as Homo sapiens) | ≥ 1.5
5 | hsa-miR-26a: high-value miRNA; mature sequence UUCAAGUAAUCCAGGAUAGGC, SEQ ID NO: 9 (listed as RNA, chemistry not given here; listed as Homo sapiens) | ≥ 1.5
6 | hsa-miR-432*: high-value miRNA; mature sequence CUGGAUGGCUCCUCCAUGUCU, SEQ ID NO: 15 (listed as RNA, chemistry not given here; listed as Homo sapiens) | ≥ 1.5
7 | hsa-miR-17-3p: high-value miRNA; mature sequence ACUGCAGUGAAGGCACUUGU, SEQ ID NO: 10 (listed as RNA, chemistry not given here; listed as Homo sapiens) | ≥ 1.5
